## Screening data, single-dose tests

Amino acid sequences for entries named in this document (tags omitted). Residues count along the entry.
UniProt P9WFT3, whole entry: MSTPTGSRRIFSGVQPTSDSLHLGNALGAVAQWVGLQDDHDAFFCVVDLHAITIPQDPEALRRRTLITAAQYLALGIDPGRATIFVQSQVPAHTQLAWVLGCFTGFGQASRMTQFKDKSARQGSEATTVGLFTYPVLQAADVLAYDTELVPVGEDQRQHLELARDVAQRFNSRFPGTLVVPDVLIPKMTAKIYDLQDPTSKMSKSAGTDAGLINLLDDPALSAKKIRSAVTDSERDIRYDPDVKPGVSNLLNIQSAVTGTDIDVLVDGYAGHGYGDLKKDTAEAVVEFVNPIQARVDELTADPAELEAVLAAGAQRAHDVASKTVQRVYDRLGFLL
UniProt P9WPC5, whole entry: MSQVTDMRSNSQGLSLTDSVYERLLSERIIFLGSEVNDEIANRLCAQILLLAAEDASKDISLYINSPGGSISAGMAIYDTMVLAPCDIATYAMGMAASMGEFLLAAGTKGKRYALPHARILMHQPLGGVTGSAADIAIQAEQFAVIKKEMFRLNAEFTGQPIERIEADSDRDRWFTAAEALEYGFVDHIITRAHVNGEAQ
UniProt P9WPC3, whole entry partner: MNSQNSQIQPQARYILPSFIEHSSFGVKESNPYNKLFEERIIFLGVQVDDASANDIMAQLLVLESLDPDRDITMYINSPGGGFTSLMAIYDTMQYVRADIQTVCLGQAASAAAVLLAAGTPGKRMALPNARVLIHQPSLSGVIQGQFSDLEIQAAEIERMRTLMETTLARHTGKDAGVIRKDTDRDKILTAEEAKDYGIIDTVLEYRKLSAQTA
UniProt I6X8D2, whole entry: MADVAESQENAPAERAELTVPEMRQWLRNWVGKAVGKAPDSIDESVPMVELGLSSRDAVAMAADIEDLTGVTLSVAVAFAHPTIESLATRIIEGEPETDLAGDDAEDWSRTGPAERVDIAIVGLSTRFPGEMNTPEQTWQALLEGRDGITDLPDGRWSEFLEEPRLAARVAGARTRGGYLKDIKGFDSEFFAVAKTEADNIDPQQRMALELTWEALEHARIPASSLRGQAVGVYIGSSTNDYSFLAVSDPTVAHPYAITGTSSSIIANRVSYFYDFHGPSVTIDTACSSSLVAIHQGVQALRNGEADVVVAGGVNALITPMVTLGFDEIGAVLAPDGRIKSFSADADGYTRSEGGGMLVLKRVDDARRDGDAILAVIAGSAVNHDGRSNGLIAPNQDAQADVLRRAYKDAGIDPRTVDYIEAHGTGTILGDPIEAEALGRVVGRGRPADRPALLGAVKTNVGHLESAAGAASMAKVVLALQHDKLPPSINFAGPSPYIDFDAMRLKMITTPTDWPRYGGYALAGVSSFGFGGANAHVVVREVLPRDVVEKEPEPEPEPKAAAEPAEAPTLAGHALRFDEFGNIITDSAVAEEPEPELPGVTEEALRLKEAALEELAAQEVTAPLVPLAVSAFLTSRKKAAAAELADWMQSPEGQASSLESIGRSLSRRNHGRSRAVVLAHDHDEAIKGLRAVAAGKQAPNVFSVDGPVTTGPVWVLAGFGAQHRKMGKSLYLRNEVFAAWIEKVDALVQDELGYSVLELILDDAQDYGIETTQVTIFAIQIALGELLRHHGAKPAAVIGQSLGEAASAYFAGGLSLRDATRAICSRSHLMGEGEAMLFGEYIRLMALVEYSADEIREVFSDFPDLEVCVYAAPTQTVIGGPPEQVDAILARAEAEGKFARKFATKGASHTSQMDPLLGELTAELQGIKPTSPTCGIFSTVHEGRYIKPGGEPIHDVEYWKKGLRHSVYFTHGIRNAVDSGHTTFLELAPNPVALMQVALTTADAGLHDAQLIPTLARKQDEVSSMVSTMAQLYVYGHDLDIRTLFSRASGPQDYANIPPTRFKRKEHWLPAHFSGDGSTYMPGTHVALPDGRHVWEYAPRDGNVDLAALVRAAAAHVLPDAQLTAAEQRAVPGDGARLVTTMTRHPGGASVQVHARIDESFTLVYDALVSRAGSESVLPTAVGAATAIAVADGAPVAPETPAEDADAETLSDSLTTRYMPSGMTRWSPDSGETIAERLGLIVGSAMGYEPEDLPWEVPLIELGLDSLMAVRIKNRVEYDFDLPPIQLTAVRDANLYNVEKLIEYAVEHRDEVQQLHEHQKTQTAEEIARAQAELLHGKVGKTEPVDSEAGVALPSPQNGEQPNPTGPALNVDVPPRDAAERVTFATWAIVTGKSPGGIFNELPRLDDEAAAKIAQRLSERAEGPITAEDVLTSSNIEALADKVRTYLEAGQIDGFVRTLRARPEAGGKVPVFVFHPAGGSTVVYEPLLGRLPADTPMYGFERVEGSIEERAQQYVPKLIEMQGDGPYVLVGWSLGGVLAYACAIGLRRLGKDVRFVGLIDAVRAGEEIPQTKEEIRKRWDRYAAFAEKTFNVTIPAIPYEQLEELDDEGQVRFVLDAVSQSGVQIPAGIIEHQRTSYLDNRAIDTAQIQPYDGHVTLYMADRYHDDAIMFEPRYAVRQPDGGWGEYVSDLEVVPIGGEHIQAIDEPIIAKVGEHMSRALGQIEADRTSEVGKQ
UniProt Q8IDJ8, 1-583: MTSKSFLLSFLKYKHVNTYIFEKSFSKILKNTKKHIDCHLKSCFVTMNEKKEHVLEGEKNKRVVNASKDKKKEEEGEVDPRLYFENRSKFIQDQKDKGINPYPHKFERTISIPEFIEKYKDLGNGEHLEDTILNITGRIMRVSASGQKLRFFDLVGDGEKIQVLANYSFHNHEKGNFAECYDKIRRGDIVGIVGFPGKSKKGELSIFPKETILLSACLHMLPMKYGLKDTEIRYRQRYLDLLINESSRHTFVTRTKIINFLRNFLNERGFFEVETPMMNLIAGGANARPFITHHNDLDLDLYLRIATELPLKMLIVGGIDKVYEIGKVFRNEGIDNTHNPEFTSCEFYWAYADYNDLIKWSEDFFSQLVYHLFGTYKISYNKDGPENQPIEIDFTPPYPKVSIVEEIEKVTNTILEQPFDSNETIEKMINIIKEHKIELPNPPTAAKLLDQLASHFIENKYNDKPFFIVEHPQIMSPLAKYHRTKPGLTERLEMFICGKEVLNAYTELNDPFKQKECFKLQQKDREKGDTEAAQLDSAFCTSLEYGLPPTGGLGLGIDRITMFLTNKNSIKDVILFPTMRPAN

MtTrpRS: 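Enzyme assay of tryptophanyl-tRNA synthetase; the read-out is not stated. Target: Tryptophan-tRNA ligase, Mycobacterium tuberculosis (UniProt P9WFT3). Compounds at 10 µM. Direction is not recorded; retested compounds ran higher, which suggests that high means inhibition. Of about 65,000 compounds tested this way, about 64 (0.098%) reached 50% or more in at least one test.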
ClpP1P2: 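Protease assay of ClpP1P2, read by the AMC dye that it sets free. Target: ClpP1P2, Mycobacterium tuberculosis (UniProt P9WPC5 and UniProt P9WPC3). Tested at 50 µM. Higher reads as stronger inhibition, judged from the few compounds that gave an IC50. Most other retested compounds had strongly negative values. Size under these conditions: about 69,000 compounds, about 10 of them at 50% or above in at least one test.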
Pks13 thioesterase: 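Enzyme assay of the thioesterase domain of polyketide synthase 13; the read-out is not stated. Target: Polyketide synthase Pks13, Mycobacterium tuberculosis (UniProt I6X8D2). Compounds at 30 µM. The record gives no direction; the compounds picked for IC50 retests had high values, so higher reads as stronger inhibition. Of about 67,000 compounds tested this way, about 300 (0.46%) reached 50% or more in at least one test.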
PfKRS1: 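Enzyme assay of the cytosolic lysyl-tRNA synthetase in 384-well plates, read by luminescence. Target: Lysine-tRNA ligase, Plasmodium falciparum 3D7 (UniProt Q8IDJ8). Compounds at 30 µM. Direction is inferred from only a few compounds that gave an IC50; most scored high, so higher reads as stronger inhibition. About 69,000 compounds were tested under these conditions; 0.071% (about 49) showed 50% or more at least once.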

The filed quantity is “Percent Effect” (%). The record does not define 0% and 100%; most values in the screen are far below 50% and negative numbers occur (in some assays of this library far below -100). The compounds are a random part of those screened.

structure: CCc1nnc(CN(CC)C(=O)C(C)n2ccnc2C(C)C)o1 (centres undefined)
MtTrpRS: 2.193
ClpP1P2: -3.332
Pks13 thioesterase: -12.92
PfKRS1: 2.026

structure: CC[C@@H]1N(CC2CCC2)CCC[C@]12CCC(=O)N2Cc1ccncc1
MtTrpRS: 4.36
ClpP1P2: -4.439
Pks13 thioesterase: -20.52
PfKRS1: 5.128

structure: Fc1ccc(-n2cccn2)c(CN2CCCCC2CCn2ccnc2)c1 (centres undefined)
MtTrpRS: 0.5961
ClpP1P2: -1.837
Pks13 thioesterase: -29.22
PfKRS1: 3.796

structure: Cc1nnc(SCC(=O)NCC(c2ccccc2Cl)N(C)C)s1 (centres undefined)
MtTrpRS: 0.9183
ClpP1P2: 0.6809
Pks13 thioesterase: 1.894
PfKRS1: 4.496

structure: COCCN(CC(F)F)c1cc(COC)nc2ncnn12
MtTrpRS: 3.849
ClpP1P2: -6.356
Pks13 thioesterase: -33.53
PfKRS1: 3.517

structure: CC(=O)N[C@H](C)c1c(-c2ccc(Cl)cc2)noc1C(=O)O
MtTrpRS: -1.581
ClpP1P2: -5.322
Pks13 thioesterase: -32.39
PfKRS1: 5.002

structure: COc1cccc2[nH]cc(CCNC(=O)N3CCOCC3C3CC3)c12 (centres undefined)
MtTrpRS: 7.31
ClpP1P2: 8.051
Pks13 thioesterase: -30.48
PfKRS1: -0.3983

structure: Cc1ccc(CNC(c2ccccc2)c2nccn2C)cc1 (centres undefined)
MtTrpRS: 16.74
ClpP1P2: -12.21
Pks13 thioesterase: -41.06
PfKRS1: -1.04

structure: CCn1cnnc1CNC(=O)N(C)Cc1cccc(Cl)c1Cl
MtTrpRS: 2.259
ClpP1P2: -13
Pks13 thioesterase: 5.631
PfKRS1: 8.346

structure: Cc1ncc(CC(=O)N2C[C@@H]3CC[C@H](C2)N(CC2CCC2)C3)c(=O)[nH]1
MtTrpRS: 0.4397
ClpP1P2: -20.71
Pks13 thioesterase: -46.31
PfKRS1: 1.746

structure: Cc1ccccc1-c1noc(CN2CC(n3cccn3)C2)n1
MtTrpRS: -6.916
ClpP1P2: 4.97
Pks13 thioesterase: -22.25
PfKRS1: 4.347

structure: CC1(C(N)=O)CCCN(c2cnccn2)C1 (centres undefined)
MtTrpRS: 13.49
ClpP1P2: -1.34
Pks13 thioesterase: -15.9
PfKRS1: -0.2431

structure: c1ccc2c(Cc3nnc([C@H]4CCN(C5CCC5)C4)o3)c[nH]c2c1
MtTrpRS: -4.348
ClpP1P2: 3.009
Pks13 thioesterase: 7.211
PfKRS1: 7.827

structure: Cc1cccc(CN2C(=O)OCC2CO)c1F (centres undefined)
MtTrpRS: -3.888
ClpP1P2: 0.5948
Pks13 thioesterase: -7.434
PfKRS1: 1.448

structure: Cn1cnnc1SCCCNC(=O)Nc1ncccn1
MtTrpRS: 1.25
ClpP1P2: 15.97
Pks13 thioesterase: 20.45
PfKRS1: 4.892

structure: Cc1nc(C)n(CC2CCCCN2CC(=O)Nc2nncs2)n1 (centres undefined)
MtTrpRS: -3.552
ClpP1P2: -5.302
Pks13 thioesterase: -8.771
PfKRS1: 3.671

structure: CNc1cccc(C2CCCN(C(=O)c3cccnc3)C2)n1 (centres undefined)
ClpP1P2: -2.342
Pks13 thioesterase: -29.38
PfKRS1: 0.2913

structure: CN(Cc1ccccc1)c1cnn(CC2CCCCO2)c(=O)c1 (centres undefined)
MtTrpRS: 2.857
ClpP1P2: -18.02
Pks13 thioesterase: -1.966
PfKRS1: 6.65

structure: O=C(NCc1csc(Br)c1)N1CCC(O)CC1
MtTrpRS: 4.741
ClpP1P2: -32.48
Pks13 thioesterase: -8.445
PfKRS1: 3.407

structure: Cc1cc2nc(C(C)C)cc(N[C@H](C(N)=O)C(C)C)n2n1
MtTrpRS: -3.78
ClpP1P2: -4.77
Pks13 thioesterase: -11.79
PfKRS1: 4.885

structure: O=C(C1CCCO1)N1CCC(O)(Cn2ccc3ccncc32)CC1 (centres undefined)
ClpP1P2: -2.345
Pks13 thioesterase: -33.9
PfKRS1: -0.54

structure: COC(=O)CN1N=C(C(=O)N2CCCC2)S(=O)(=O)c2ccccc21
MtTrpRS: -1.444
ClpP1P2: 13.23
Pks13 thioesterase: -34.68
PfKRS1: 2.116

structure: Cc1c(C(C)NC(=O)C2CCCC2)cnn1C (centres undefined)
MtTrpRS: -2.369
ClpP1P2: 23.08
Pks13 thioesterase: -11.69
PfKRS1: 2.482

structure: CC(C)CCN1CN=C(NS(=O)(=O)c2ccc(F)cc2)NC1
MtTrpRS: -0.402
ClpP1P2: 5.304
Pks13 thioesterase: -13.16
PfKRS1: 5.026

structure: c1cnc(N2CCOCC3(CCCN(CC4CC4)C3)C2)cn1 (centres undefined)
MtTrpRS: -3.043
ClpP1P2: -5.365
Pks13 thioesterase: 2.732
PfKRS1: 1.21

structure: O=C(CN1CCC(c2cccc(F)c2)C1)NCc1ccco1 (centres undefined)
MtTrpRS: 1.101
ClpP1P2: 23.31
Pks13 thioesterase: -15.88
PfKRS1: -0.6912

structure: CC(C)c1cc(C(F)(F)F)n2nc(CCC(=O)O)nc2n1
MtTrpRS: -1.917
ClpP1P2: 14.37
Pks13 thioesterase: 5.233
PfKRS1: -3.29

Data taken from ChEMBL document CHEMBL3988442, “University of Dundee, Small-Polar-MMV Screening Library” (2021).